# Source: patent US20240158446A1 (CHUGAI SEIYAKU KABUSHIKI KAISHA, priority 2021, published 2024)
# Strings that start with PEPTIDE1 are HELM notation: dots part the residues, brackets hold end groups and non-standard residues.
# Test: general procedure: Fmoc solid-phase peptide synthesis; 2-chlorotrityl (CTC) resin
# Conditions: late stage modification step
row,Substance,step yield [%]
1,"(2S,8S,12R,14S,20S,23S,27S,30S,36S,38Z)-20-cyclopentyl-2-[(4-cyclopropylphenyl)methyl]-12-ethoxy-27-isobutyl-8-[2-[3-methoxy-4-(trifluoromethyl)phenyl]ethyl]-N,N,3′,3′,4,19,22,26,32,35-decamethyl-30-[(1S)-1-methylpropyl]-3,6,9,15,18,21,25,28,31,34,42-undecaoxo-spiro[1,4,7,10,16,19,22,26,29,32,35-undecazatricyclo[34.5.1.0^10,14]dotetracont-38-ene-17,1′-cyclobutane]-23-carboxamide",3.7
2,"(2S,8S,12R,14S,20S,23S,27S,30S,36S,38Z)-20-cyclopentyl-12-ethoxy-2-[(4-ethylphenyl)methyl]-27-isobutyl-8-[2-[3-methoxy-4-(trifluoromethyl)phenyl]ethyl]-N,N,3′,3′,4,19,22,26,32,35-decamethyl-30-[(1S)-1-methylpropyl]-3,6,9,15,18,21,25,28,31,34,42-undecaoxo-spiro[1,4,7,10,16,19,22,26,29,32,35-undecazatricyclo[34.5.1.0^10,14]dotetracont-38-ene-17,1′-cyclobutane]-23-carboxamide",3.3
3,"(2S,8S,13S,14S,20S,23S,27S,30S,36S,38Z)-20-cyclopentyl-13-(2,2-difluoroethoxy)-8-[2-[3,5-difluoro-4-(trifluoromethyl)phenyl]ethyl]-27-isobutyl-N,N,4,19,22,26,32,35-octamethyl-30-[(1S)-1-methylpropyl]-3,6,9,15,18,21,25,28,31,34,42-undecaoxo-2-[[4-(trifluoromethyl)phenyl]methyl]spiro[1,4,7,10,16,19,22,26,29,32,35-undecazatricyclo[34.5.1.0^10,14]dotetracont-38-ene-17,1′-cyclobutane]-23-carboxamide",53
4,"(2S,8S,13S,14S,20S,23S,27S,30S,36S,38Z)-20-cyclopentyl-27-(cyclopropylmethyl)-13-(2,2-difluoroethoxy)-8-[2-[3,5-difluoro-4-(trifluoromethyl)phenyl]ethyl]-N,N,4,19,22,26,32,35-octamethyl-30-[(1S)-1-methylpropyl]-3,6,9,15,18,21,25,28,31,34,42-undecaoxo-2-[[4-(trifluoromethyl)phenyl]methyl]spiro[1,4,7,10,16,19,22,26,29,32,35-undecazatricyclo[34.5.1.0^10,14]dotetracont-38-ene-17,1′-cyclobutane]-23-carboxamide",54

# Same assay, conditions: whole synthesis
row,Substance,isolated yield [%]
1,"(1S,7S,11R,13S,19S,22S,26S,29S,35S,37Z,47E)-7-[2-[3,5-difluoro-4-(trifluoromethyl)phenyl]ethyl]-11-ethoxy-19-(1-ethylpropyl)-3,3′,3′,18,21,25,31,34-octamethyl-29-[(1 S)-1-methylpropyl]-22-(pyrrolidine-1-carbonyl)spiro[3,6,9,15,18,21,25,28,31,34,41-undecazapentacyclo[24.15.10.2^43,46.1^35,41.0^9,13]tetrapentaconta-37,43(53),44,46(52),47-pentaene-16,1′-cyclobutane]-2,5,8,14,17,20,24,27,30,33,54-undecone",16.4
2,"PEPTIDE1{[MeAhpe(2)-E].I.[MeGly].[MeAlgly_c].[ButenylPhe_c].[MeGly].[Hph(4-CF3-35-F2)].[Hyp(Et)].[cVal(3-Me2)].[MeNva(3-Et)].[MeAsp2-pip]}$PEPTIDE1,PEPTIDE1,1:R1-11:R2|PEPTIDE1,PEPTIDE1,1:R3-5:R3|PEPTIDE1,PEPTIDE1,4:R3-5:R4$$$V2.0",31.1
3,"PEPTIDE1{[MeAnone(2)-E].I.[MeGly].[MeAlgly_c].[ButenylPhe_c].[MeGly].[Hph(34-Cl2)].[Hyp(Et)].[cVal].[MeGly(cPent)].[MeAsp2-pyrro]}$PEPTIDE1,PEPTIDE1,1:R1-11:R2|PEPTIDE1,PEPTIDE1,1:R3-5:R3|PEPTIDE1,PEPTIDE1,4:R3-5:R4$$$V2.0",19.9
4,"PEPTIDE1{[MeAnone(2)-E].I.[MeGly].[MeAlgly_c].[ButenylPhe_c].[MeGly].[Hph(34-Cl2)].[Hyp(Et)].[cVal].[MeNva(3-Et)].[MeAsp2-pip]}$PEPTIDE1,PEPTIDE1,1:R1-11:R2|PEPTIDE1,PEPTIDE1,1:R3-5:R3|PEPTIDE1,PEPTIDE1,4:R3-5:R4$$$V2.0",20.9
5,"PEPTIDE1{[MeAocte(2)-E].I.[MeGly].[MeAlgly_c].[ButenylPhe_c].[MeGly].[Hph(4-CF3-35-F2)].[Hyp(Et)].[cVal(3-Me2)].[MeNva(3-Et)].[MeAsp2-NMe2]}$PEPTIDE1,PEPTIDE1,1:R1-11:R2|PEPTIDE1,PEPTIDE1,1:R3-5:R3|PEPTIDE1,PEPTIDE1,4:R3-5:R4$$$V2.0",21.3
